Hit rate of the full screen: of about 52,000 sequences, about 210 (0.4%) were called active.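 How the source made its calls: active means gene whose silencing raises cell survival under the drug, median off-target-corrected z-score across its silencing RNAs 2 or more; inactive means the rest.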 The list shows a part of the results.
Assay: Resistance to Poly (ADP-Ribose) Polymerase inhibitor: Gene Identification via Genome-wide siRNA Screen
Conditions: mouse BRCA2 R2336H ES cells, olaparib, CellTiter-Glo viability; hits give high values
In short: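 Genome-wide siRNA screen (3 siRNAs/gene, 20 nM) in mouse ES cells carrying hypomorphic BRCA2 R2336H; olaparib 500 nM added 48 h post-transfection, CellTiter-Glo viability 72 h later. Normalized to plate-median negative control; MAD z-scores, gene median, seed-adjusted.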

| Sequence | z-score |
| --- | --- |
| GGACUACUUUAAGGAUUGGTT against Tfip11 | inactive: -1.3 |
| GGUAAUGAUCCAUUCACCATT against Ly75 | inactive: 1.96 |
| GGUUCAGACUGCAUCAGGCTT against Cspg3 | inactive: -0.695 |
| GCAGAAGUUCAUUUUCCUATT against Olfr145 | inactive: 0.683 |
| GCAGAUGUUGCGUUUCCUGTT against BC006662 | inactive: 0.437 |
| GCCAUAUAAUUUGACAGAGTT against 9930022N03Rik | inactive: -0.734 |
| CCAGGAGAACAGGAUAUAUTT against Fgr | inactive: -1.61 |
| GGGCACAUUCAGAUGUUCGTT against Nmnat2 | inactive: -0.647 |
| GCCGAACGAAUCCUCAAGUTT against A130009K11Rik | inactive: 0.326 |
| CCUAUGAGGAGGUACUAAATT against Itih1 | inactive: -1.06 |
| GGUACUUGUAUUGCUCAUUTT against Asf1b | inactive: 0.325 |
| CCAACAAAAACGUACUUUGTT against 9530091C08Rik | inactive: 0.016 |
| CCUGAUGUUAUUCCUUUUATT against D930050H05Rik | inactive: 0.0593 |
| GGUUGUGGCCAUCAAGAAATT against BC048082 | inactive: 1.59 |
| GCAGAACCUUGGAAAAAAATT against Mef2a | inactive: 1.01 |
| CCAUGGCCAAGAACUAGUUTT against Hp | inactive: -0.0037 |
| GCAAUGCUUACUUUUAUGGTT against Zmpste24 | inactive: -0.00423 |
| GGACUUGUCAGCACUGAGCTT against BB219290 | inactive: 1.25 |
| GCACAAUGGAAGGUGUCCUTT against Tas2r114 | inactive: 0.354 |
| GGAAGGUCUUUGGGAACUGTT against Insl5 | inactive: -0.877 |
| CCUGAAUGGAAAGAAUUGGTT against LOC622129 | inactive: 0.161 |
| GGAAUCUCUGAAGAAGAAGTT against AI591476 | inactive: -0.789 |
| GGAGGCAGUUCGAAGAAUUTT against Rab9 | inactive: -0.136 |
| GGUAGAGAUGUACAUUUGGTT against Chrdl2 | inactive: -0.77 |
| GUGAAGAAAGCACUGUUGATT against Olfr978 | inactive: 0.281 |
| GGCUCUUUGGAGACCAUCATT against 4930432E11Rik | inactive: -0.702 |
| GGAAGGAUAUAAGACACAATT against Mpa2 | inactive: 0.111 |
| GGAGAACUUAAAGCACAAUTT against Plxnb1 | inactive: -0.891 |
| CCAAAGACCUUGGUCAUAATT against Tle3 | inactive: 0.328 |

Some of the entries so far, tab-delimited:
Sequence	z-score
GCAGAACCUUGGAAAAAAATT against Mef2a	inactive: 1.01
CCAUGGCCAAGAACUAGUUTT against Hp	inactive: -0.0037
GCAAUGCUUACUUUUAUGGTT against Zmpste24	inactive: -0.00423
GGACUUGUCAGCACUGAGCTT against BB219290	inactive: 1.25
GCACAAUGGAAGGUGUCCUTT against Tas2r114	inactive: 0.354
GGAAGGUCUUUGGGAACUGTT against Insl5	inactive: -0.877
CCUGAAUGGAAAGAAUUGGTT against LOC622129	inactive: 0.161

From PubChem BioAssay AID1347423 (Functional Genomics Laboratory (NCATS/FGL), 2020)
